# The whole screen tested about 400,000 compounds, of which about 13,000 (3.2%) were called active. Inconclusive means that the source gave no clear call. Such entries were picked first, then a sample of the others. Calls come from the whole dose curve; as a rule, active = well fitted cell-killing curve with a large enough effect; inconclusive = small, poorly fitted or top-dose-only effect, or effect the other way; inactive = flat fitted curve, though single readings scatter. Potencies of inconclusive entries are doubtful fits and often do not repeat.
# Assay: qHTS assay for MDR1-selective chemotherapeutics: Primary screen using the drug-selected MDR subline cells KB-V1; note: nearly all actives have a fitted effect of over 60% in size
# Conditions: KB-V1 MDR cells viability, CellTiter-Glo, 72 h; activity change, negative = cytotoxicity: at 46.1 µM (top of the series)
# How it was run: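 KB-V1, DMEM (no phenol red) + 10% FBS; cpd pin-transferred, titration series; 72 h, 37 degrees C; CellTiter-Glo, luminescence. Data normalized, curve-fit.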
# % is set by controls: 0 for no effect and ±100 for the full control effect; potency is the fitted concentration of half-maximal effect.
SMILES,Potency,"activity change, negative = cytotoxicity"
COc1ccc(C(C(=O)NC(C)(C)C)n2c(=O)c(-c3cc4ccccc4[nH]3)nc3ccccc32)cc1 (configuration not stated),"inconclusive: 20.6 µM [cytotoxic, partial curve]",
COc1cccc(NC(=O)CN2CCCCCC2)c1,,inactive: 13.3%
Cc1c(/C=N/NC(=O)c2cccs2)c2ccccc2n1Cc1ccccc1Cl,"inconclusive: 7.31 µM [cytotoxic, partial curve]",
O=C(Nc1ccc(C(=O)N2CCCCC2)cc1)c1cccs1,"inconclusive: 20.6 µM [cytotoxic, single point]",
C=CCNCC(=O)Nc1sc2c(c1C(=O)Nc1ccc(OC)cc1OC)CCC2,"inconclusive: 18.4 µM [rising, single point]",
CCCCC[C@H](C)N1C[C@H](COCc2ccccc2)Oc2cc(N3CCC[C@H]3C(N)=O)ccc2S1(=O)=O,"inconclusive: 18.4 µM [cytotoxic, single point]",
O=C(N/N=C/c1ccc([N+](=O)[O-])o1)c1ccc(O)cc1,"inconclusive: 8.2 µM [cytotoxic, partial curve, poor fit]",
COc1ccc(C(=O)Cn2c(C(C)=O)nc3ccccc32)cc1,active: 3.26 µM,
CCc1cccc(NC(=O)C2CCC(CNS(=O)(=O)c3ccc4c(c3)CCCC(=O)N4)CC2)c1 (configuration not stated),"inconclusive: 29.1 µM [rising, partial curve, poor fit]",
COCCN1CCN(C(=O)c2cc(COc3ccc(F)cc3Cl)on2)CC1,"inconclusive: 20.6 µM [cytotoxic, single point]",
O=C(Nc1ccc2c(c1)nc1n2CCSC1)c1ccccc1,active: 13 µM,
Cc1cc(C(=O)Nc2cnn(Cc3ccc(Cl)cc3Cl)c2)no1,active: 13 µM,
O=C(NC(=S)Nc1cc([N+](=O)[O-])ccc1O)c1ccc2c(c1)OCO2,"inconclusive: 8.2 µM [cytotoxic, partial curve, poor fit]",
N#CCCN1C(=O)C2(OCCO2)c2ccccc21,"inconclusive: 29.1 µM [rising, single point]",
Fc1ccc(CSc2nncn2NCc2ccccc2)cc1,"inconclusive: 20.6 µM [cytotoxic, single point]",
CCOC(=O)c1cccc(NC(=O)CSc2nc3ccccc3c(=O)n2CCOC)c1,active: 4.61 µM,
O=[N+]([O-])/C=C\c1ccc(N2CCCC2)c(F)c1,"inconclusive: 18.4 µM [cytotoxic, single point]",
COc1ccc(N(C)S(=O)(=O)c2ccc(Cl)c(C(=O)NCCc3ccc(Cl)cc3)c2)cc1,"inconclusive: 18.4 µM [cytotoxic, single point]",
COc1ccc(Nc2c(-c3cc4ccccc4o3)nc3nc(C)cc(C)n23)cc1,"inconclusive: 20.6 µM [cytotoxic, partial curve, poor fit]",
O=C(CCCl)N1c2ccccc2C=Cc2ccccc21,"inconclusive: 29.1 µM [cytotoxic, single point]",
COc1cccc2c1C(=N)c1c(O)c3c(c(O)c1C2=O)CC(O)(C(C)=O)CC3OC1CC(N)C(O)C(C)O1 (configuration not stated),"inconclusive: 8.2 µM [cytotoxic, partial curve, poor fit]",

SMILES,Potency,"activity change, negative = cytotoxicity"
OCCN1CCN(C(c2ccc(Cl)cc2Cl)c2sc3nc(-c4ccco4)nn3c2O)CC1 (configuration not stated),"inconclusive: 20.6 µM [rising, single point]",
O=C(CN1C(=O)c2ccccc2C1=O)Nc1cccc(Cl)c1,"inconclusive: 18.4 µM [rising, single point]",
O=C(O)CSc1c(O)c2ccccc2[nH]c1=O,"inconclusive: 32.6 µM [rising, single point]",
CCCCOc1ccc(-c2nnn(CC(=O)NCCc3c[nH]c4ccccc34)n2)cc1,active: 16.4 µM,
CCOc1ccc(-c2cn3ccccc3n2)cc1[N+](=O)[O-],"inconclusive: 18.4 µM [cytotoxic, single point]",
O=C1[C@H](Cc2ccccc2)NC/C=C\C[C@@H](c2ccc(Cl)cc2)N1Cc1ccccc1,"inconclusive: 14.6 µM [cytotoxic, partial curve]",
CCc1cccc(NC(=O)C(NS(=O)(=O)c2ccc3nc(C)sc3c2)C(C)C)c1 (configuration not stated),,inactive: -2.36%
O=C(O)/C=C/c1cn(-c2ccccc2)nc1-c1ccc2c(c1)OCCO2,,inactive: -8.21%
CCc1ccc(C2=NN(CCC(=O)NC(C)CCc3ccccc3)C(=O)CC2)cc1 (configuration not stated),"inconclusive: 23.1 µM [cytotoxic, partial curve, poor fit]",
COc1ccccc1Oc1ccc(N/C=C2/CCCC2=O)cc1,"inconclusive: 18.4 µM [cytotoxic, partial curve, poor fit]",
O=C(N/N=C/c1cc(Cl)ccc1O)c1ccc(Br)cc1,"inconclusive: 29.1 µM [cytotoxic, single point]",
CCOC(=O)[C@H]1[C@H]2COc3ccc(OC)cc3[C@@H]2N2C(=O)c3cc(OC)ccc3NC(=O)[C@@]12C,,inconclusive: -3.82%
COc1ccc(CCNC(=O)c2nnn(-c3cc(C)cc(C)c3)c2N)cc1OC,"inconclusive: 16.4 µM [cytotoxic, partial curve, poor fit]",
COCCNC(=O)c1c[nH]c2ccc(S(=O)(=O)N3CCOCC3)cc2c1=O,"inconclusive: 6.51 µM [rising, partial curve]",
CSc1nsc(SCC(=O)Nc2cc(C(=O)O)ccc2C)n1,"inconclusive: 32.6 µM [rising, single point]",
C(=C\c1nnc2c3ccccc3ncn12)/c1ccccc1,active: 5.17 µM,
CCCOc1ccc(C(=O)NNC(=S)NC(=O)c2cccs2)cc1,"inconclusive: 2.06 µM [cytotoxic, full curve]",
O=C(NCN1CCN(c2ccccn2)CC1)c1cnccn1,"inconclusive: 18.4 µM [rising, single point]",
COc1ccccc1-c1n[nH]c(=S)n1Cc1ccccc1,,inactive: -10.6%
Cc1cc(C)c(/C=N/NC(=O)c2nnn(-c3nonc3N)c2CN2CCC(C)CC2)c(C)c1,"inconclusive: 9.2 µM [cytotoxic, partial curve]",
CCCC1(c2ccccc2)NC(=O)N(CC(=O)c2[nH]c(C)c(C(=O)OCC)c2C)C1=O (configuration not stated),active: 23.1 µM,

# Reprinted at random: 2 entries already listed.
SMILES,Potency,"activity change, negative = cytotoxicity"
O=C(CN1C(=O)c2ccccc2C1=O)Nc1cccc(Cl)c1,"inconclusive: 18.4 µM [rising, single point]",
COc1ccc(CCNC(=O)c2nnn(-c3cc(C)cc(C)c3)c2N)cc1OC,"inconclusive: 16.4 µM [cytotoxic, partial curve, poor fit]",

# — PubChem BioAssay AID1347076 (National Center for Advancing Translational Sciences (NCATS), 2019)
